Results are given in words; binding and its absence hold for the method and conditions named. Some binding calls cover weakened binding; strength is not graded here. Tags and fused reporters may be left off the sequences shown.
Substrate: T1, C terminus FLAG-tagged Clec4A4 on DC2.4 cells (DC2.4-expressing Clec4A4-GFP) (mouse) (UniProt Q5YIR8)
T1 sequence: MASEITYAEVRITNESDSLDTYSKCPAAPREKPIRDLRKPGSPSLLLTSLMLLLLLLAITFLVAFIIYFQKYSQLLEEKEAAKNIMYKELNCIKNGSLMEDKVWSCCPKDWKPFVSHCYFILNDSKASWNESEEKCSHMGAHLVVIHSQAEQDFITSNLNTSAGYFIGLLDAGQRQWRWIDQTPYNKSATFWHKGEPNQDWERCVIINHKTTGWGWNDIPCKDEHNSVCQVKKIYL
Assay: flow cytometry on cells; DC2.4, DC2.4-expressing mock-GFP or DC2.4-expressing Clec4A4-GFP stained with 1 ug of Fc fusion protein followed by anti-human IgG-PE; only the binder purified

| binding | Binder |
| --- | --- |
| binds | Clec4A4-huIgFc (extracellular domain of Clec4A4 fused to the Fc fragment of human IgG) (Fc fusion, UniProt Q5YIR8 68-236) YFQKYSQLLEEKEAAKNIMYKELNCIKNGSLMEDKVWSCCPKDWKPFVSHCYFILNDSKASWNESEEKCSHMGAHLVVIHSQAEQDFITSNLNTSAGYFIGLLDAGQRQWRWIDQTPYNKSATFWHKGEPNQDWERCVIINHKTTGWGWNDIPCKDEHNSVCQVKKIYL |
| binds | SIGNR1-huIgFc (Fc fusion, UniProt Q8CJ91 74-325) QVSKTPNTERQKEQEKILQELTQLTDELTSRIPISQGKNESMQAKITEQLMQLKTELLSRIPIFQGQNESIQEKISEQLMQLKAELLSKISSFPVKDDSKQEKIYQQLVQMKTELFRLCRLCPWDWTFLLGNCYFFSKSQRNWNDAVTACKEVKAQLVIINSDEEQTFLQQTSKAKGPTWMGLSDLKKEATWLWVDGSTLSSRFQKYWNRGEPNNIGEEDCVEFAGDGWNDSKCELKKFWICKKSATPCTEG |

From paper PMC4832068
